Results as given in patent US20040265300A1, “Chimeric molecules containing a module able to target specific cells and a module regulating the apoptogenic function of the permeability transition pore complex (PTPC)” (priority 2001, published 2004).
Part of at least one peptide drawing is inferred or uncertain, most often the ends.

Sequences of proteins named here, by UniProt entry; tags and fusion partners are left off.
UniProt P21796, whole entry, species assumed: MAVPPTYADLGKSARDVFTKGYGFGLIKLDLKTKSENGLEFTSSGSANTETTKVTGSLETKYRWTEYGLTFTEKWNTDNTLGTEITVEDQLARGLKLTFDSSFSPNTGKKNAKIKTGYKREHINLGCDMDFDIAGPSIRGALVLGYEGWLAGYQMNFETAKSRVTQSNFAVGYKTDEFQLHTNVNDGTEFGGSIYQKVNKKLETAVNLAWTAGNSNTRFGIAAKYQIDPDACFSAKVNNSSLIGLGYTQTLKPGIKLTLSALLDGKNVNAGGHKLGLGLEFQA

Tests used:
[1] = tested on: permeability transition pore (PTP); test: Swelling of isolated mitochondria (large amplitude swelling, 90° light scattering); assay type: biochemical, rat; set-up: key: +++ rapid sw; ++ low sw; + very low sw; − no sw; settings: 5 μM, t 20 min
Protocol: Mitochondria are purified from rat liver, as described (Costantini et al., 1996), and resuspended in 250 mM sucrose +0.1 mM EGTA +10 mM -tris[hydroxymethyl]methyl-2-Aminoethanesulfonic acid, pH=7.4). For the induction of PT, mitochondria (0.5 mg protein per ml) are resuspended in PT buffer (200 mM sucrose, 10 mM Tris-MOPS (pH 7.4), 5 MM Tris-succinate, 1 mM Tris-phosphate, 2 μM rotenone, and 10 μM EGTA-Tris), and monitored in an F4500 fluorescence spectrometer (Hitachi, Tokyo, Japan) for the 90° light scattering of light (545 nm) to determine large amplitude swelling after addition of 2 mM atractyloside (Atr), 1 μM cyclosporin A (CsA; Novartis, Basel, Switzerland), 5 μM CaCl2, and/or 0.5 to 20 μM of pTarg-pTox or pTarg-pSave. For the determination of the ΔΨm, mitochondria (0.5 mg protein per ml) are incubated in a buffer supplemented with 1μM rhodamine 123 (Molecular Probes, Eugene, OR) and the dequenching of rhodamine fluorescence (excitation 505 nm, emission 525 nm) is measured as described (Shimizu et al., 1998). […] Cytochrome c and AIF are detected by means of a monoclonal antibody (clone 7H8.2C12, Pharmingen) and a polyclonal rabbit anti-serum (Susin et al. 1999) respectively.

[2] = molecular target: purified VDAC (Homo sapiens, UniProt P21796); test: Surface plasmon resonance, immobilised peptides with purified VDAC; assay type: binding; settings: VDAC concentrations ten times higher than ANT
Protocol: Sensor Chips SA (streptavidin coated sensor chips) were used for immobilisation of the different peptides. Tox1 was immobilised at a density of 0.7 ng/mm^2, Tox0 at a density of 3.7 ng/mm^2,. Ctrl Tox0 at a density of 1.4 ng/mm^2, Tox5 at a density of 1 ng/mm^2, Tox6 at a density of 1 ng/mm^2, Save 1 at a density of 1.3 ng/mm^2, and the control peptide at a density of 0.8 ng/mm^2. Association and dissociation kinetics of ANT and VDAC interactions were followed at a rate of 10 μL/min for 10 minutes (5 minutes association and 5 minutes dissociation). The ligand was regenerated with a 1 minute flux of KSCN 3M. The obtained sensorgrams were analysed by the B1Aeval 3.1 software using the method of double references (Myszka D.G. 2000. Kinetic, equilibrium and thermodynamic analysis of macromolecular interactions with BIACORE. Methods Enzymol. 323:325-340). From the sensorgrams with the ligands were first substracted the sensorgrams obtained with the corresponding analyte solvents. A second substraction was performed with the sensorgrams obtained with the control peptide ligand. The control peptide for the Tox and Save peptides was biot-H19C corresponding to the sequence of the β2-adrenergic receptor (Lebesgue D., Wallukat G., Mijares A., Granier C., Argibay J., and Hoebeke J. (1998) An agonist-like monoclonal antibody to the human β 2-adrenergic receptor. Eur.J. Pharmacol. 348:123-133). […]

## CC[C@H](C)[C@H](NC(=O)CNC(=O)[C@@H](NC(=O)[C@H](CCCNC(=N)N)NC(=O)[C@H](CO)NC(=O)[C@H](Cc1c[nH]cn1)NC(=O)[C@H](CCCNC(=N)N)NC(=O)[C@H](CS)NC(=O)CNC(=O)[C@@H](NC(=O)[C@H](CCCNC(=N)N)NC(=O)[C@H](Cc1ccccc1)NC(=O)[C@H](Cc1c[nH]cn1)NC(=O)[C@@H](NC(=O)[C@H](Cc1ccccc1)NC(=O)[C@H](CC(C)C)NC(=O)[C@H](CC(C)C)NC(=O)[C@H](CCC(N)=O)NC(=O)[C@H](CCC(N)=O)NC(=O)[C@H](CC(C)C)NC(=O)[C@@H](NC(=O)[C@H](CCCNC(=N)N)NC(=O)[C@@H](NC(=O)[C@H](CC(C)C)NC(=O)[C@H](C)NC(=O)[C@H](CCC(=O)O)NC(=O)[C@@H](NC(=O)CNC(=O)[C@@H](NC(=O)[C@H](Cc1c[nH]c2ccccc12)NC(=O)[C@@H](NC(=O)[C@H](CC(=O)O)NC(=O)CCCC[C@@H]1SC[C@@H]2NC(=O)N[C@@H]21)[C@@H](C)O)[C@@H](C)O)C(C)C)[C@@H](C)CC)[C@@H](C)CC)[C@@H](C)CC)[C@@H](C)CC)[C@@H](C)CC)C(=O)N[C@H](C(=O)N[C@@H](CCC(N)=O)C(=O)N[C@@H](CCC(N)=O)C(=O)N[C@@H](CCCNC(=N)N)C(=O)N[C@@H](CCCNC(=N)N)C(=O)N[C@H](C(=O)N[C@@H](CCCNC(=N)N)C(=O)N[C@@H](CC(N)=O)C(=O)NCC(=O)N[C@@H](C)C(=O)N[C@@H](CO)C(=O)N[C@@H](CCCCN)C(=O)N[C@@H](CO)C(=O)O)[C@@H](C)O)[C@@H](C)CC [Tox0]
[1]
  Induction of Mitochondrial swelling (sw): +++
[2]
  association of VDAC with the peptide ligand: extremely low association
